Source: PubChem BioAssay AID1159578 (Peter MacCallum Cancer Centre, 2015)

Assay: 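Knock-downs that alter how fast lymphatic endothelial cells migrate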 (primary screen)
Cell system: human lymphatic endothelial cells
Knock-down reagent: siRNA pool against human genes, 40 nM
Time to read-out: 48 h after transfection
Read-out: 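High-content imaging of dye-stained cells in a scratch assay measures filled wound area and nuclei per well; duplicate means given as ratio to mock and robust z-score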
Direction: migration robust z-score: higher = faster migration into the scratch; migration relative to mock: higher = more scratch area covered than mock; nuclei per well: higher = more cells in the well
Hit rule: 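Migration changed when robust z exceeds 2 or falls below -2 and mean nuclei number is at least 3300; otherwise not called changed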
Meaning of the calls: active = migration changed; inactive = no migration change, or too few cells
Shown is one part, drawn at random, of about 18,000 reagents. About 1,030 of all reagents (5.7%) were called active. 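Inactive calls also include pools with fewer than 3300 nuclei, whose migration was not assessed.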 The raw values are shown without normalisation. Entries without a mark were called inactive.

no.	gene	migration robust z-score	migration class with cell-count check	migration relative to mock	nuclei per well, duplicate mean
1	IFNA5	-0.92	migration z between -2 and 2; enough cells	0.66	5719
2	ENO1	0.06	migration z between -2 and 2; enough cells	0.82	6053
3	SLX9	-0.49	migration z between -2 and 2; enough cells	0.76	5632
4	SACM1L	-0.75	migration z between -2 and 2; enough cells	0.66	5366
5	GPX4	-0.35	migration z between -2 and 2; enough cells	0.8	5453
6	BNIP5	-0.56	migration z between -2 and 2; enough cells	0.74	6412
7	KRTAP27-1	-0.64	migration z between -2 and 2; enough cells	0.72	4844
8	GLOD4	-0.24	migration z between -2 and 2; enough cells	0.76	7248
9	IGFLR1	0.43	migration z between -2 and 2; enough cells	1	6951
10	PELI3	0.02	migration z between -2 and 2; enough cells	0.9	6628
11	RXYLT1	-1.68	migration z between -2 and 2; enough cells	0.44	3822
12	ACSL6	0.42	migration z between -2 and 2; enough cells	0.88	5202
13	UBA6	0.15	migration z between -2 and 2; enough cells	0.84	6037
14	IL17F	-0.24	migration z between -2 and 2; enough cells	0.82	5323
15	MYBPHL	-1.9	migration z between -2 and 2; enough cells	0.4	5486
16	CCDC88C	1.54	migration z between -2 and 2; enough cells	1.29	6865
17	UBTD1	-1.06	migration z between -2 and 2; enough cells	0.6	4820
18	SLCO1B7	0.67	migration z between -2 and 2; enough cells	1.05	4467
19	ERP29	2.46 (active)	migration z above 2; enough cells	1.52	6766
20	IL22RA1	0.42	migration z between -2 and 2; enough cells	0.88	3618
21	TRIM26	-1.01	migration z between -2 and 2; enough cells	0.61	5227
22	RPS7	-2.62	under 3300 nuclei; migration not judged	0.22	3234
23	CXCR4	-0.21	migration z between -2 and 2; enough cells	0.76	3988
24	MS4A4A	-2.07 (active)	migration z below -2; enough cells	0.34	4227
25	CACFD1	-1.48	migration z between -2 and 2; enough cells	0.5	3980
26	TMT1B	-0.83	migration z between -2 and 2; enough cells	0.64	5760
27	SUPT6H	-0.32	migration z between -2 and 2; enough cells	0.74	6284
28	ARHGDIB	0.67	migration z between -2 and 2; enough cells	0.94	5562
29	KDM5B	1.27	migration z between -2 and 2; enough cells	1.05	6670
30	ADAMTS20	0.36	migration z between -2 and 2; enough cells	0.88	5740
31	CLCN2	-0.08	migration z between -2 and 2; enough cells	0.79	5020
32	TAS2R8	-0.39	migration z between -2 and 2; enough cells	0.78	5868
33	CHPF2	-1.66	migration z between -2 and 2; enough cells	0.48	5982
34	BRD3	0.96	migration z between -2 and 2; enough cells	0.99	6486
35	TENT5B	0.78	migration z between -2 and 2; enough cells	1.08	7584
36	OSCP1	-1.34	migration z between -2 and 2; enough cells	0.54	5567
37	ZBTB14	0.48	migration z between -2 and 2; enough cells	1.01	5714
38	SPRY4	-0.42	migration z between -2 and 2; enough cells	0.77	5324
39	OSCAR	-0.88	migration z between -2 and 2; enough cells	0.66	5404
40	TRO	-0.21	migration z between -2 and 2; enough cells	0.83	5000
41	VAPA	-0.97	migration z between -2 and 2; enough cells	0.64	4974
42	EOLA1	-1.95	migration z between -2 and 2; enough cells	0.37	4414
43	WDR17	0.86	migration z between -2 and 2; enough cells	1.11	6274
44	PTGER3	0.16	migration z between -2 and 2; enough cells	0.84	6188
45	IZUMO2	0.22	migration z between -2 and 2; enough cells	0.94	6188
46	ZC3H8	-0.73	migration z between -2 and 2; enough cells	0.7	6379
47	AP1M2	-0.47	migration z between -2 and 2; enough cells	0.76	6208
48	AP3S2	-1.18	migration z between -2 and 2; enough cells	0.57	5040
49	RBM23	1.04	migration z between -2 and 2; enough cells	1.15	7266
50	APOA2	-2.62 (active)	migration z below -2; enough cells	0.3	3960
51	ARHGDIG	-1.62	migration z between -2 and 2; enough cells	0.46	5220
52	RTP1	0.66	migration z between -2 and 2; enough cells	1.05	5373
53	TXNDC15	0.16	migration z between -2 and 2; enough cells	0.84	5000
54	CYB5R4	-1.66	migration z between -2 and 2; enough cells	0.48	5367
55	POP1	1.84	migration z between -2 and 2; enough cells	1.36	6293
56	ZSCAN16	0.09	migration z between -2 and 2; enough cells	0.91	4892
57	PGAM4	0.29	migration z between -2 and 2; enough cells	0.86	5798
58	TMEM123	-1.27	migration z between -2 and 2; enough cells	0.55	5162
59	RMDN2	0.96	migration z between -2 and 2; enough cells	1.13	6030
60	MSANTD4	1.03	migration z between -2 and 2; enough cells	1.16	6106
61	CYP2W1	-0.24	migration z between -2 and 2; enough cells	0.76	5743
62	MTDH	2.25 (active)	migration z above 2; enough cells	1.47	6670
63	MAJIN	0.46	migration z between -2 and 2; enough cells	1	5622
64	TLR4	-0.91	migration z between -2 and 2; enough cells	0.63	3921
65	SLC43A2	-1.95	migration z between -2 and 2; enough cells	0.37	4498
66	AMTN	2.35 (active)	migration z above 2; enough cells	1.5	6908
67	RADIL	-1.6	migration z between -2 and 2; enough cells	0.47	6334
68	CD3G	-0.83	migration z between -2 and 2; enough cells	0.64	6341
69	LINC01599	-1.29	migration z between -2 and 2; enough cells	0.55	4665
70	PDE6A	1.27	migration z between -2 and 2; enough cells	1.05	5510
71	CAPN1	0.54	migration z between -2 and 2; enough cells	0.91	5940
72	PRPS2	-0.07	migration z between -2 and 2; enough cells	0.79	4744
73	SLC22A1	0	migration z between -2 and 2; enough cells	0.8	4585
